Our source for the growth estimate values is the supplement of paper PMC5949888.

Most values lie at the floor of the assay. Slopes are relative: functional sequences can read slightly below zero. Some results are limits rather than exact numbers.

The test system of this data set is Saccharomyces cerevisiae PS128 hsf1 delta, HSF1(1-493) fusion. The data set can be described thus: growth estimate (transactivation domain function in HSF1 fusion, heat-shock survival) (a.u. (slope of normalised read count over time)); higher = stronger growth at 37°C, i.e. more transactivation activity. The settings on record: library: random library. The method, then:
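Random 60-nt DNA library encoding peptides of up to 20 aa, fused to the C-terminus of yeast HSF1 residues 1-493 (C-terminal TAD deleted) and expressed from the native HSF1 promoter on a CEN plasmid in hsf1-deleted S. cerevisiae PS128. Cells were selected at 37°C on -trp 5-FOA plates for 0, 2, 4, 6 and 8 days and amplicons were sequenced. Growth estimate is the slope of a robust linear fit of total-sum-normalised read counts (normalised to the first time point) over time, using at least 2 replicates. Sequences are classed functional (TAD activity) above a threshold of -0.13, set from stop-codon control sequences.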
In the case of ACSRLVVA, the growth estimate was under -0.25.

Regarding RLRGHHAKALTR, the growth estimate is under -0.25.

On to NVACTIRRDRESARHFEGSP, for which the growth estimate was under -0.25.

On to FIDRRKAACVAQRWERWCAV, for which the growth estimate was -0.246.

Take RQYGTEDRFDQGTLAHHDSC: the growth estimate was under -0.25.

As for IHYA, the growth estimate was under -0.25.

Regarding HRATV, the growth estimate is under -0.25.

As to LERLCFATFLEVHHIIVSTM, the growth estimate was under -0.25.

Take IGGTLCGADCGFGRRVTSTR: the growth estimate was -0.243.

Turning to KAAQFWGVRLWTIGPRLVTT, the growth estimate is under -0.25.

Take SVFVRCKYIQGGRTLLRQYS: the growth estimate is under -0.25.

On to NKPRMGGSRRDARNAFVRLS, for which the growth estimate was -0.246.

For LPRDWTHYGRKALGGRYPGP, the growth estimate was under -0.25.

For the substance HYQERR, the growth estimate is under -0.25.

Turning to WSSLHTERVGISTTDERPSN, the growth estimate was under -0.25.

In the case of VERCSGQCPCS, the growth estimate is under -0.25.

For the substance IMILQRLCSDRNMVTKDGPS, the growth estimate was under -0.25.

As to RHCGASADCSTATA, the growth estimate was under -0.25.

On to LADIWLYLARSSAEGGRQVV, for which the growth estimate was under -0.25.

With LKLPVVRESDTDVVELSLSN, the growth estimate was under -0.25.

With SGGGVVEYRRLTSRVSRFTD, the growth estimate was under -0.25.

With AHICQMVAGWKSILSIVTYM, the growth estimate was under -0.25.

As to CDNSEYNV, the growth estimate was under -0.25.

As for SKTVPAEGLTIWAEPHVQPG, the growth estimate is under -0.25.

For the substance PGSVGACLQSQCPGSKL, the growth estimate was under -0.25.

Take GTHPGHFNVSTGEKAREPSG: the growth estimate is 0.184.

With RHVCRFE, the growth estimate was under -0.25.

As to PHKPSLSRGTHESRCRCNPR, the growth estimate was under -0.25.

As to YKGRQKMNGEAVDCPWN, the growth estimate is under -0.25.

With FIMGMLRP, the growth estimate is under -0.25.

On to ATPICCQHGV, for which the growth estimate is under -0.25.

For the substance LARYKTQTKSRQDISASSKT, the growth estimate was under -0.25.

Take CPTRLRNI: the growth estimate is under -0.25.

For the substance VQNRLAWYDAFTDCYKLSAR, the growth estimate was under -0.25.

For the substance VGRHRINVRSPSLMSVPSGA, the growth estimate is under -0.25.

Turning to DVDAHRFCSVGLNGYRMISV, the growth estimate is under -0.25.

On to RPRAPSTRRGKRRRCELCMM, for which the growth estimate is under -0.25.

Regarding KPKSTVSDANRHLIKFIHVP, the growth estimate was under -0.25.

For the substance CRFQHS, the growth estimate was under -0.25.

Regarding GDLWMGVVRQGIHQIRR, the growth estimate was under -0.25.

For the substance FQHQGALDRSYQHSLTSGYA, the growth estimate is under -0.25.

Consider RVRCEHGAFSGEVIQRDCGI, for which the growth estimate was under -0.25.

Take SCCVPKTVNAGTVDCKSHGQ: the growth estimate was -0.229.

For the substance QFHLNRNGTFHRYF, the growth estimate was under -0.25.

For the substance SGGTSPFLSLVCSFRAKCQP, the growth estimate is under -0.25.

For the substance RSAFLFSFMLPRGKWQYYSG, the growth estimate is under -0.25.

Consider LVSPRGRTVTISERTGNNLA, for which the growth estimate is under -0.25.

On to NLIRE, for which the growth estimate is under -0.25.

SPHKFIRDGGVGSRPAVQLQ: the growth estimate is -0.231.

For TPNACDVNGQSHRPG, the growth estimate is under -0.25.

On to GGKTVRHWKRPRGERVDAGR, for which the growth estimate was under -0.25.

Consider KLRIARESLGTCDRLGRVFR, for which the growth estimate is under -0.25.

Consider TTRVRICGLSTGSVRPAAVL, for which the growth estimate is under -0.25.

With VGFAPSRQCGPFR, the growth estimate was under -0.25.

As for IYGVLTRVGQ, the growth estimate is under -0.25.

As to LLVHCAPLGLIRFGH, the growth estimate is under -0.25.

As to ASPE, the growth estimate is under -0.25.

As to QQTNDQVCYSVTTNDCLFSS, the growth estimate was under -0.25.

As to QRNCIVSYRSHRPIQ, the growth estimate was under -0.25.

In the case of CFVTIAGLITCFVTTQETFG, the growth estimate is under -0.25.

On to METRMVGTHALAMIGNNVHL, for which the growth estimate was under -0.25.
